No constants are given. Whether binding was seen depends on the method and setting. In cells and extracts the contact can be indirect. A result given as binding can be weak or reduced; the word gives no strength.
Experiments:
[1] = target: Flag-tagged arrestin-3-Δ7 (UniProt P32120); test: co-IP; COS-7 cells co-transfected, serum starved, with or without 10 µM isoproterenol (10 min, 37°C) and with or without HA-β2AR over-expression; anti-Flag immunoprecipitation of arrestin, anti-HA blot; lysis buffer with 250 mM NaCl, 0.5% Nonidet P-40
[2] = target: Flag-tagged arrestin-2-Δ7 (UniProt P17870); test: as above

Chains of the proteins cited; added tags and fusions are not shown. Lines headed by an entry give the natural chain unless they say otherwise; changes in a name come on top.
UniProt P17870: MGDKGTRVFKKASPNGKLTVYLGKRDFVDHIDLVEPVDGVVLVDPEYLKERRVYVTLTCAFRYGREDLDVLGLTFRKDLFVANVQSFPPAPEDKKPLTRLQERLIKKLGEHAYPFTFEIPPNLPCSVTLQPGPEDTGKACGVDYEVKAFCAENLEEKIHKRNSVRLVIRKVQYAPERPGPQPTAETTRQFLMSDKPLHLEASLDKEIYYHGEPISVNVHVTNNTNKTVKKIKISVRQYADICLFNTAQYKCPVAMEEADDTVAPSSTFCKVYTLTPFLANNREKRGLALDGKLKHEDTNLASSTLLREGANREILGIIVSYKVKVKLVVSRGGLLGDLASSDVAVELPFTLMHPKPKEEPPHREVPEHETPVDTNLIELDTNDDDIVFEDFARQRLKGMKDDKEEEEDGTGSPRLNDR

Row | binding [1] | binding [2] | Substance
1 | binds |  | c-Raf1-HA (from UniProt P04049 1-648) (enzyme)
2 | binds | binds | MEK1-HA (from UniProt Q02750 1-393) (enzyme)

From article PMC3236217
